Results are given in words; binding and its absence hold for the method and conditions named. In cells and extracts the contact can be indirect. Here binding means that the protein was enriched with, or labelled near, the bait; the list need not be complete.
B1: Rab27B (protein, UniProt O00194 1-218)
chain: MTDGDYDYLIKLLALGDSGVGKTTFLYRYTDNKFNPKFITTVGIDFREKRVVYNAQGPNGSSGKAFKVHLQLWDTAGQERFRSLTTAFFRDAMGFLLMFDLTSQQSFLNVRNWMSQLQANAYCENPDIVLIGNKADLPDQREVNERQARELADKYGIPYFETSAATGQNVEKAVETLLDLIMKRMEQCVEKTQIPDTVNGGNSGNLDGEKPPEKKCIC
B2: melanophilin (MLPH) (protein, UniProt Q9BV36 1-600)
chain: MGKKLDLSKLTDEEAQHVLEVVQRDFDLRRKEEERLEALKGKIKKESSKRELLSDTAHLNETHCARCLQPYQLLVNSKRQCLECGLFTCKSCGRVHPEEQGWICDPCHLARVVKIGSLEWYYEHVKARFKRFGSAKVIRSLHGRLQGGAGPELISEERSGDSDQTDEDGEPGSEAQAQAQPFGSKKKRLLSVHDFDFEGDSDDSTQPQGHSLHLSSVPEARDSPQSLTDESCSEKAAPHKAEGLEEADTGASGCHSHPEEQPTSISPSRHGALAELCPPGGSHRMALGTAAALGSNVIRNEQLPLQYLADVDTSDEESIRAHVMASHHSKRRGRASSESQIFELNKHISAVECLLTYLENTVVPPLAKGLGAGVRTEADVEEEALRRKLEELTSNVSDQETSSEEEEAKDEKAEPNRDKSVGPLPQADPEVGTAAHQTNRQEKSPQDPGDPVQYNRTTDEELSELEDRVAVTASEVQQAESEVSDIESRIAALRAAGLTVKPSGKPRRKSNLPIFLPRVAGKLGKRPEDPNADPSSEAKAMAVPYLLRRKFSNSLKSQGKDDDSFDRKSVYRGSLTQRNPNARKGMASHTFAKPVVAHQS

Sequences of proteins named here, by UniProt entry; tags and fusion partners are left off.
UniProt Q6BDS2: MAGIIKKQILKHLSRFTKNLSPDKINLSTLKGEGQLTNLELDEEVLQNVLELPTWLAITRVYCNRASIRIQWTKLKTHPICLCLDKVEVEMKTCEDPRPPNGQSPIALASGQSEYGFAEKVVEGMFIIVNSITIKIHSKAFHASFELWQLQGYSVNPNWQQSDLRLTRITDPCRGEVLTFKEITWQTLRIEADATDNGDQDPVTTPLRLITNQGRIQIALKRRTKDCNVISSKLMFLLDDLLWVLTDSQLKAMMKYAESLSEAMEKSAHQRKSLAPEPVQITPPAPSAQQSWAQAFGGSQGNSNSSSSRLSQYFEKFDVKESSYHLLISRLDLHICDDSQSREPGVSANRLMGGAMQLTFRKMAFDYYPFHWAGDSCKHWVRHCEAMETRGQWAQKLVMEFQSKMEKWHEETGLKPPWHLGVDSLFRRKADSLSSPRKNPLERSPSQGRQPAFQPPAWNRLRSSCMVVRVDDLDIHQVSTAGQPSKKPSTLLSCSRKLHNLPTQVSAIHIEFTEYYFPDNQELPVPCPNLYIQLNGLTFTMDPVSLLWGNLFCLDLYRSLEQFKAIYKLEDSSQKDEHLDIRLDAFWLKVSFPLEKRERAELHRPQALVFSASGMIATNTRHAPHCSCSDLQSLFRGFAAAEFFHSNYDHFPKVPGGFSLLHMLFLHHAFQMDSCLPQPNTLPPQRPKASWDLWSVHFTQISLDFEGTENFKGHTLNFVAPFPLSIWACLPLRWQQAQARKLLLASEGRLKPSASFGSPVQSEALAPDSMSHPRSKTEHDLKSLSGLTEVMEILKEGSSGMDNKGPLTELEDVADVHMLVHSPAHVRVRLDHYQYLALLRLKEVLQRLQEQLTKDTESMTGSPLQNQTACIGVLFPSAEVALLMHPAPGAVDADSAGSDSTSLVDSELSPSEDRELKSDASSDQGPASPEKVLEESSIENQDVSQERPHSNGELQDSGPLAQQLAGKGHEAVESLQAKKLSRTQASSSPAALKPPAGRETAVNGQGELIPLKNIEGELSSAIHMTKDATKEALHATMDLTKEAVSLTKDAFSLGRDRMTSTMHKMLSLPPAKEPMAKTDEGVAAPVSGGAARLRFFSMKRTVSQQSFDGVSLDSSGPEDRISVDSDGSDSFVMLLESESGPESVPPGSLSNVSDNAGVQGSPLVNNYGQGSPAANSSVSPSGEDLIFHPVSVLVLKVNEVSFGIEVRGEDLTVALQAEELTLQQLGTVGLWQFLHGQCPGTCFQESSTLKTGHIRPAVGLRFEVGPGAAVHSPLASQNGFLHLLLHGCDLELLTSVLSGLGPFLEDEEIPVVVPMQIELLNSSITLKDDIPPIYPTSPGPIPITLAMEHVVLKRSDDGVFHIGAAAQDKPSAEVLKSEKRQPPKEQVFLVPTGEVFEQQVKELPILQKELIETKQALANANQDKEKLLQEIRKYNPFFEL
UniProt O95166: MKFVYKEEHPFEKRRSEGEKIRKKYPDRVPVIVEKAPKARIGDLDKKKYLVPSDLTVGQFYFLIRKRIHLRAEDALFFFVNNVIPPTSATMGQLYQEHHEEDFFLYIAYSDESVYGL

These molecules were tested against bridge-like lipid transfer protein 3A (BLTP3A), endogenously tagged with an internal V5 epitope (BLTP3A^V5) (human (endogenous in A549)) (UniProt Q6BDS2) (assay: affinity purification with mass spectrometry; anti-V5 magnetic resin (V5-Trap) on lysates of A549 cells with endogenously tagged BLTP3A^V5; 50 mM Tris pH 7.6, 150 mM NaCl, 1% Triton X-100, 4 °C, 2 h; unedited A549 cells as control; n = 3; dia-PASEF mass spectrometry).

Row | Molecule | binding
1 | GABARAP (from UniProt O95166 1-117) | binds
2 | B1 | binds
3 | B2 | binds

Source: publication PMC12583604
